Assay results reported in the supplement of paper PMC12067093, “Discovery and optimisation of a covalent ligand for TRIM25 and its application to targeted protein ubiquitination” (Chemical Science, 2025).
The other results are listed elsewhere or left out.

Amino acid sequences for entries named in this document (tags omitted). A change or cut given only in a name is not applied to a line headed by its entry.
UniProt Q9NQ86: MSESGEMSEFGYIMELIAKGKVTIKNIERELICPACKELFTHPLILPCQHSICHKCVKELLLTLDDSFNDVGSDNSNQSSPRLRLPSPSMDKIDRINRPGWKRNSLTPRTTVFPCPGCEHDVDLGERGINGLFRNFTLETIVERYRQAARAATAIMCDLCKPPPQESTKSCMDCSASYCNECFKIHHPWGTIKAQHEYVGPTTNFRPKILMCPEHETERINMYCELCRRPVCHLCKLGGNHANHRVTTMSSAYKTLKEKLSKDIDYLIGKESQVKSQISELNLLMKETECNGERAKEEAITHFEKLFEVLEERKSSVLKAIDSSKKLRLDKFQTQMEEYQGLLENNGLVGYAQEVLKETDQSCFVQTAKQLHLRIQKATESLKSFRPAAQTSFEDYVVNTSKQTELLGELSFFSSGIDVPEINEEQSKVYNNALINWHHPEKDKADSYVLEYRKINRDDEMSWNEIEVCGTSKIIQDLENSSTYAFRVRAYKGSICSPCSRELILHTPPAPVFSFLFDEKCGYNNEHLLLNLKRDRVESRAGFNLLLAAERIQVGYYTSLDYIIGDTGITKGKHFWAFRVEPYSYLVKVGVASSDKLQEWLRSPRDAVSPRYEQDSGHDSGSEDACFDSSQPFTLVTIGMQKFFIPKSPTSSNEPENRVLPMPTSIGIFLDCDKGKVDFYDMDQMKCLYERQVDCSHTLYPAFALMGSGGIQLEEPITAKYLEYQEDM
UniProt Q7Z2T5: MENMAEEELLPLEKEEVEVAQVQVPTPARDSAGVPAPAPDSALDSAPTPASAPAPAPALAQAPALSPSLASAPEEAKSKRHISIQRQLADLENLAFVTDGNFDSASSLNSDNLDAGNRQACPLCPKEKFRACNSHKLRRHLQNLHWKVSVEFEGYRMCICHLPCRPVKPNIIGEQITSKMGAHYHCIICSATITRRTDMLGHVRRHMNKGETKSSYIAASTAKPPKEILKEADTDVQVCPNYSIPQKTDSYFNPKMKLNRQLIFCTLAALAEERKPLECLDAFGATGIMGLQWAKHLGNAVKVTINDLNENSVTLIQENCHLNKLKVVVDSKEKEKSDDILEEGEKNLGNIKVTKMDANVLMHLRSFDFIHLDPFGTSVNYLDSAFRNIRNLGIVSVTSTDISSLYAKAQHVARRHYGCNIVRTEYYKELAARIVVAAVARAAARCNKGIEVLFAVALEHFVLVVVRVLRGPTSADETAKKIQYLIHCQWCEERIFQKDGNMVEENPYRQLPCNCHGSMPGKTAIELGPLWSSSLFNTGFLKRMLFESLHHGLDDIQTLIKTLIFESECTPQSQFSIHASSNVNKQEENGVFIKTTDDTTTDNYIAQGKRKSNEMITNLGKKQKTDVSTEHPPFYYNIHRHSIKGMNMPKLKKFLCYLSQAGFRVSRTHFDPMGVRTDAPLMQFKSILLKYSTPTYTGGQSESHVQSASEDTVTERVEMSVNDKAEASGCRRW
UniProt O43617, whole entry: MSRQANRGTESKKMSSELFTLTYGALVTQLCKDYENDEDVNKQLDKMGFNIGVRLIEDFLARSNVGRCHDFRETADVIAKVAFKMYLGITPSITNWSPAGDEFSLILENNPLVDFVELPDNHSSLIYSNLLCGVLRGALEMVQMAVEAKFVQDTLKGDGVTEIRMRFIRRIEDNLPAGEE
UniProt Q7L0Y3: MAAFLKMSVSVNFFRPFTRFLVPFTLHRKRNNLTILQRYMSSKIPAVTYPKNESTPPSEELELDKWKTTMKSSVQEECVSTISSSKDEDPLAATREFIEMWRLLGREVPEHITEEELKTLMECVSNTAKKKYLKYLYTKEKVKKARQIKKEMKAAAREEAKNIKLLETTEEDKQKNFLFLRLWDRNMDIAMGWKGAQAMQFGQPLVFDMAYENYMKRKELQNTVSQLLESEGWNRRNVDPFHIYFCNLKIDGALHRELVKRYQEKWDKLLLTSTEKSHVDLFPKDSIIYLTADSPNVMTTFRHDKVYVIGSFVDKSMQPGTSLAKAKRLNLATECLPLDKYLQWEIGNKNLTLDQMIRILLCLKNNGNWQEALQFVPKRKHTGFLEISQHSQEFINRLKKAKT
UniProt Q12933: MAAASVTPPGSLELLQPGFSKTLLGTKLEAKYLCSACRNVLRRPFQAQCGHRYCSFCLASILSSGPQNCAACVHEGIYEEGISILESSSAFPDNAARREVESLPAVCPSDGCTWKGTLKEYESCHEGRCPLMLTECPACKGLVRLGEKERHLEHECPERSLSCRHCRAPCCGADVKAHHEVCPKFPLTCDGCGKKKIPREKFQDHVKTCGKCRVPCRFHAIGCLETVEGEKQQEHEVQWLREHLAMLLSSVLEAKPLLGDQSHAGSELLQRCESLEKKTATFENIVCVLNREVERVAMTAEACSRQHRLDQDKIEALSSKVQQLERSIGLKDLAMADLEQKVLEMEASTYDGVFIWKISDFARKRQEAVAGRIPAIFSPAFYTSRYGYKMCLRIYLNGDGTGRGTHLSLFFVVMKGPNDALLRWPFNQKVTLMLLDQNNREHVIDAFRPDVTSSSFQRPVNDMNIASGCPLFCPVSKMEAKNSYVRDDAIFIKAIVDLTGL
UniProt Q14258, whole entry, looked up: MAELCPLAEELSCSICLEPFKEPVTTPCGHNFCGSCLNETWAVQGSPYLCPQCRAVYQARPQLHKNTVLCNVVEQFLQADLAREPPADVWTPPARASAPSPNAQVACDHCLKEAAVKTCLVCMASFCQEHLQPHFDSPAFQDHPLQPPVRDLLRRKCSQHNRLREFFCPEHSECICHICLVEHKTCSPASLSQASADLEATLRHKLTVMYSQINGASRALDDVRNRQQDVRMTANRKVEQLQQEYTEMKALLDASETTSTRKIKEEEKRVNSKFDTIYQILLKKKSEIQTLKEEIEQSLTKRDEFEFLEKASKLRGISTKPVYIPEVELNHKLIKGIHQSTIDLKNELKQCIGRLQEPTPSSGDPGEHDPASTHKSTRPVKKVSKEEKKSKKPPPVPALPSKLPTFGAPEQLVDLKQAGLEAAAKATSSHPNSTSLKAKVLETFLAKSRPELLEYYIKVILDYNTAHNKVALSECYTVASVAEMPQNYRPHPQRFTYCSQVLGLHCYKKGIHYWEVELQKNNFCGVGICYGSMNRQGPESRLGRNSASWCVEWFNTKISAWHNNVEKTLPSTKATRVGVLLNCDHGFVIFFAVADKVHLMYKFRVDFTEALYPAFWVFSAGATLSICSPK
UniProt Q9Y4K3: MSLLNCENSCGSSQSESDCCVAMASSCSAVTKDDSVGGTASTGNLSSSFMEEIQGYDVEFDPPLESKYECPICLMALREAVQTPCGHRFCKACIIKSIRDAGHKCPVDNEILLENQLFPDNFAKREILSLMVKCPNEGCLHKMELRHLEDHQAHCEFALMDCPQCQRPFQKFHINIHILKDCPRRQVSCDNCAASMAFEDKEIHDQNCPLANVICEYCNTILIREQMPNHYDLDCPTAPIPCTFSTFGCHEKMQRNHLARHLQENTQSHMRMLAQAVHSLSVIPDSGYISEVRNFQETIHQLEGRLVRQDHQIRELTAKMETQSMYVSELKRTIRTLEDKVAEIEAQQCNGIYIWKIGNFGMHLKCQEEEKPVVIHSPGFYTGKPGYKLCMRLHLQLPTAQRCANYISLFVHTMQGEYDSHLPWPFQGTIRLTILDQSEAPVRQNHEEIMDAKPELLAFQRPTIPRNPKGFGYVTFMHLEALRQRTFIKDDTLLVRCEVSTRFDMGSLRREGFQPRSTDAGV
UniProt O14545: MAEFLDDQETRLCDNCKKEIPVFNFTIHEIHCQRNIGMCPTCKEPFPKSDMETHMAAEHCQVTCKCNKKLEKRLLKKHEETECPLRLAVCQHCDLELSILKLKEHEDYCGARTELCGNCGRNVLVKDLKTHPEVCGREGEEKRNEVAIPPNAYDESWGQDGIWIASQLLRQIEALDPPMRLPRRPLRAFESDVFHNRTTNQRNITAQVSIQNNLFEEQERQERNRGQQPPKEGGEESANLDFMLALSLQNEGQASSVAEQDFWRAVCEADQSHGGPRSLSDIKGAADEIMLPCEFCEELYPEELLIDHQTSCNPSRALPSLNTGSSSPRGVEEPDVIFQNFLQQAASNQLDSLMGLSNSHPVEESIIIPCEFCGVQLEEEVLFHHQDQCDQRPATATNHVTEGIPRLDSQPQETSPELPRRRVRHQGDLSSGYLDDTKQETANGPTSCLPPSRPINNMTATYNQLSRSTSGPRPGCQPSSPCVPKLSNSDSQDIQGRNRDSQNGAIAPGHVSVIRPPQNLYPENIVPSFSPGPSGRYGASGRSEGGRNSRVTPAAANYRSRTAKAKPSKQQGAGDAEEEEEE
UniProt Q14142: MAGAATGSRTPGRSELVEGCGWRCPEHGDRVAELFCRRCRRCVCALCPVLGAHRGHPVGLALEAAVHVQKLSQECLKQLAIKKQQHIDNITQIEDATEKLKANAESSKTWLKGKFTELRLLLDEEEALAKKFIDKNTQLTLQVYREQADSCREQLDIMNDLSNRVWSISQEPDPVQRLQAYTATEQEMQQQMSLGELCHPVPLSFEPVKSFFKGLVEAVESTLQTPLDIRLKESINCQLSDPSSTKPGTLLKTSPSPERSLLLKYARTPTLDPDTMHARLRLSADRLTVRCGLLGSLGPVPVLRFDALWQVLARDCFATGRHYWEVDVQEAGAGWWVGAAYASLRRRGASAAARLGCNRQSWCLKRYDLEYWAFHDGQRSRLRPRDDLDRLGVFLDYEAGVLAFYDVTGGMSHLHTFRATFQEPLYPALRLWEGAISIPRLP
UniProt O00635: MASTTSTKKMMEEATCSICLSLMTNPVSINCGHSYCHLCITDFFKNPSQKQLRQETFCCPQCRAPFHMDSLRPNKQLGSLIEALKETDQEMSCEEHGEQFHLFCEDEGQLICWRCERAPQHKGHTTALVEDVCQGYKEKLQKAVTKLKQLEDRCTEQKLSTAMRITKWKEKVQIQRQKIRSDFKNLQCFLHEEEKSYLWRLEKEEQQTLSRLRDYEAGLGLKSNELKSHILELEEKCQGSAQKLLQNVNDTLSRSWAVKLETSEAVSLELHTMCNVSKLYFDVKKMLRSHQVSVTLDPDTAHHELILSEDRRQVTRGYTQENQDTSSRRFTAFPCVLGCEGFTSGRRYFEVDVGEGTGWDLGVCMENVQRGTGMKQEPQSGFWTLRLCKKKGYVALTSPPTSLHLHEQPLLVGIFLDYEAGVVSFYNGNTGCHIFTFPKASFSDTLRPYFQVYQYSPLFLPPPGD
UniProt P29144: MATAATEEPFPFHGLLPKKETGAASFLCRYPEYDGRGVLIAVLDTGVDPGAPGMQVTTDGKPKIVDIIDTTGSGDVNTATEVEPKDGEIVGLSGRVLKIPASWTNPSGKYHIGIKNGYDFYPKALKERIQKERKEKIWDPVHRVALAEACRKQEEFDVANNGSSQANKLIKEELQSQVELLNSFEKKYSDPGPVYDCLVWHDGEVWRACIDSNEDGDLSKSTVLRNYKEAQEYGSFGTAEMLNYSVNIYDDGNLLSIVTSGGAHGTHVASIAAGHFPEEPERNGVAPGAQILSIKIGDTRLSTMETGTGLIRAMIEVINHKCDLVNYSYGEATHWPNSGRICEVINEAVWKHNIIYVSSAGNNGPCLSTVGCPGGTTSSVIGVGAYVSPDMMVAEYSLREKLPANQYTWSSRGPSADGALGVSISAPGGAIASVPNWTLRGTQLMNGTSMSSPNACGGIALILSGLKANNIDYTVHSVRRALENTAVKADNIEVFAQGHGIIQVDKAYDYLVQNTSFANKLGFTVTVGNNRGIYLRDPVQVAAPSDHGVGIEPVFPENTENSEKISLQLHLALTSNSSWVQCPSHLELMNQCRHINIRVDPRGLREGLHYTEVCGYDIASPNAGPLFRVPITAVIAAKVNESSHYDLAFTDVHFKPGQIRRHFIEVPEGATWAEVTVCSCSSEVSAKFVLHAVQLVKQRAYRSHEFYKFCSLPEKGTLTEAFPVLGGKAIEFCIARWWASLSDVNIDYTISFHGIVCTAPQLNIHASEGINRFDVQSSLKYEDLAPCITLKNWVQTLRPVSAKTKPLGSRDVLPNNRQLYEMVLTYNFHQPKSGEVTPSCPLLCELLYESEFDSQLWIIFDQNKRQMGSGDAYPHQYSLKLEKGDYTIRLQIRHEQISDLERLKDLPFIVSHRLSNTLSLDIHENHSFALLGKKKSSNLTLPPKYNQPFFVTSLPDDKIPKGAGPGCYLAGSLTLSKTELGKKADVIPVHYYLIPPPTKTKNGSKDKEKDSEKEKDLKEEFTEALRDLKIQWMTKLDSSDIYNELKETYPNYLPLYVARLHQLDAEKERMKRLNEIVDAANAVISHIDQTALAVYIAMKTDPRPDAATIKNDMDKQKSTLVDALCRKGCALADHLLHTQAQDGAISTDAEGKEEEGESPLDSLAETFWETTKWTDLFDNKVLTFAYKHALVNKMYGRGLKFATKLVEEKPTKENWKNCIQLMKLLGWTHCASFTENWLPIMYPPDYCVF

Compound: Cc1cc(ccc1-c1ccccc1)C(=O)N1CCCN(CC1)C(=O)CCl [compound 10]
Experiment: probe-labelled cysteine peptide fold change vs DMSO (competition) (log2 fold change); higher = less target engagement (more negative = stronger competition)
Conditions: THP-1, incubation time: 4 h
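Note: competitive profiling in live THP-1 cells: cysteine peptides tagged with an iodoacetamide desthiobiotin (IA-DTB) probe, intensity after compound treatment relative to DMSO-treated cells.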

TRIM21_P19474_54_GGGSVCPVCR (UniProt P19474)
probe-labelled cysteine peptide fold change (10 µM): 0.0541 | probe-labelled cysteine peptide fold change (50 µM): -0.278

TRIM36_Q9NQ86_363_ETDQSCFVQTAK (UniProt Q9NQ86)
probe-labelled cysteine peptide fold change (10 µM): -0.162 | probe-labelled cysteine peptide fold change (50 µM): -0.137

TRIP6_Q15654_476_IQELSATVTTDC (UniProt Q15654)
probe-labelled cysteine peptide fold change (10 µM): -0.194 | probe-labelled cysteine peptide fold change (50 µM): 0.0577

TRMT1L_Q7Z2T5_121_QACPLCPK (UniProt Q7Z2T5)
probe-labelled cysteine peptide fold change (10 µM): -0.0455 | probe-labelled cysteine peptide fold change (50 µM): -0.125

TRAPPC3_O43617_31_MSSELFTLTYGALVTQLCK (UniProt O43617)
probe-labelled cysteine peptide fold change (10 µM): -0.0343 | probe-labelled cysteine peptide fold change (50 µM): 0.356

TRIM36_Q9NQ86_469_INRDDEMSWNEIEVCGTSK (UniProt Q9NQ86)
probe-labelled cysteine peptide fold change (10 µM): -0.125 | probe-labelled cysteine peptide fold change (50 µM): 0.0977

TRMT10C_Q7L0Y3_123_TLMECVSNTAK (UniProt Q7L0Y3)
probe-labelled cysteine peptide fold change (10 µM): 0.0352 | probe-labelled cysteine peptide fold change (50 µM): -0.00903

TRAF2_Q12933_182_AHHEVCPK (UniProt Q12933)
probe-labelled cysteine peptide fold change (10 µM): 0.048 | probe-labelled cysteine peptide fold change (50 µM): -0.202

TRIM25_Q14258_174_EFFCPEHSECICHICLVEHK (UniProt Q14258)
probe-labelled cysteine peptide fold change (10 µM): 0.0389 | probe-labelled cysteine peptide fold change (50 µM): 0.145

TRIM28_Q13263_221+224_HEPLVLFCESCDTLTCR (UniProt Q13263)
probe-labelled cysteine peptide fold change (10 µM): -0.294 | probe-labelled cysteine peptide fold change (50 µM): 0.157

TRAF6_Q9Y4K3_134_CPNEGCLHK (UniProt Q9Y4K3)
probe-labelled cysteine peptide fold change (10 µM): 0.0129 | probe-labelled cysteine peptide fold change (50 µM): -0.0767

TRMT2A_Q8IZ69_225_ACCPLEGVRPSPQQTEYR (UniProt Q8IZ69)
probe-labelled cysteine peptide fold change (10 µM): -0.334 | probe-labelled cysteine peptide fold change (50 µM): -0.747

TRMT1L_Q7Z2T5_186+189_MGAHYHCIICSATITR (UniProt Q7Z2T5)
probe-labelled cysteine peptide fold change (10 µM): 0.173 | probe-labelled cysteine peptide fold change (50 µM): -0.0889

TRAFD1_O14545_135_THPEVCGR (UniProt O14545)
probe-labelled cysteine peptide fold change (10 µM): -0.0334 | probe-labelled cysteine peptide fold change (50 µM): -0.0502

TRMT10C_Q7L0Y3_335_LNLATECLPLDK (UniProt Q7L0Y3)
probe-labelled cysteine peptide fold change (10 µM): -0.00415 | probe-labelled cysteine peptide fold change (50 µM): 0.0919

TRIM14_Q14142_20_SELVEGCGWR (UniProt Q14142)
probe-labelled cysteine peptide fold change (10 µM): -0.0963 | probe-labelled cysteine peptide fold change (50 µM): -0.468

TRIM38_O00635_58_QETFCCPQCR (UniProt O00635)
probe-labelled cysteine peptide fold change (10 µM): -0.0831 | probe-labelled cysteine peptide fold change (50 µM): -0.146

TRAPPC13_A5PLN9_327_LSLEAIPDTVNLEEPFHITCK (UniProt A5PLN9)
probe-labelled cysteine peptide fold change (10 µM): 0.0844 | probe-labelled cysteine peptide fold change (50 µM): 0.00702

TRIP4_Q15650_541_EQFPDISQESDSPFVFICK (UniProt Q15650)
probe-labelled cysteine peptide fold change (10 µM): 0.0917 | probe-labelled cysteine peptide fold change (50 µM): -0.191

TPP2_P29144_28_ETGAASFLCR (UniProt P29144)
probe-labelled cysteine peptide fold change (10 µM): 0.0614 | probe-labelled cysteine peptide fold change (50 µM): 0.0545

TRAF6_Q9Y4K3_249_EQMPNHYDLDCPTAPIPCTFSTFGCHEK (UniProt Q9Y4K3)
probe-labelled cysteine peptide fold change (10 µM): 0.211 | probe-labelled cysteine peptide fold change (50 µM): 0.0398

TRIM25_Q14258_176_EFFCPEHSECICHICLVEHK (UniProt Q14258)
probe-labelled cysteine peptide fold change (10 µM): 0.158 | probe-labelled cysteine peptide fold change (50 µM): 0.0977

TRAPPC8_Q9Y2L5_1330_SLCLVPVTLLLSNCSK (UniProt Q9Y2L5)
probe-labelled cysteine peptide fold change (10 µM): -0.106 | probe-labelled cysteine peptide fold change (50 µM): -0.116

TPP2_P29144_150_VALAEACR (UniProt P29144)
probe-labelled cysteine peptide fold change (10 µM): -0.136 | probe-labelled cysteine peptide fold change (50 µM): 0.0495

TPP2_P29144_342_ICEVINEAVWK (UniProt P29144)
probe-labelled cysteine peptide fold change (10 µM): 0.122 | probe-labelled cysteine peptide fold change (50 µM): 0.141
